From the supplement of paper PMC13380429

Key:
Conditions in all cases: 72 h
Caco-2 = assay: cell viability relative to DMSO; higher = less toxic
Calu-3 = assay: as above
HepG2 = assay: as above
U2OS = assay: as above
Vero E6 [1] = assay: as above
Vero E6 [2] = assay: relative viability EC50 (midpoint between 100% and the lowest measured viability); higher = less toxic

COc1cc2ncnc(Nc3ccc(F)c(Cl)c3)c2cc1OCCCN1CCOCC1 [gefitinib]
cell viability (Caco-2; 1 nM): 110% | cell viability (Caco-2; 10 nM): 102% | cell viability (Caco-2; 100 nM): 87.8% | cell viability (Caco-2; 1000 nM): 82.9% | cell viability (Caco-2; 10000 nM): 58.6% | cell viability (Calu-3; 1 nM): 91.5% | cell viability (Calu-3; 10 nM): 105% | cell viability (Calu-3; 100 nM): 72.7% | cell viability (Calu-3; 1000 nM): 48.4% | cell viability (Calu-3; 10000 nM): 14.4% | cell viability (HepG2; 1 nM): 91.8% | cell viability (HepG2; 10 nM): 91.5% | cell viability (HepG2; 100 nM): 95.2% | cell viability (HepG2; 1000 nM): 89.5% | cell viability (HepG2; 10000 nM): 56.3% | cell viability (U2OS; 1 nM): 101% | cell viability (U2OS; 10 nM): 103% | cell viability (U2OS; 100 nM): 93.4% | cell viability (U2OS; 1000 nM): 93.1% | cell viability (U2OS; 10000 nM): 70.4% | cell viability (Vero E6 [1]; 1 nM): 94.3% | cell viability (Vero E6 [1]; 10 nM): 93.2% | cell viability (Vero E6 [1]; 100 nM): 83.9% | cell viability (Vero E6 [1]; 1000 nM): 63.1% | cell viability (Vero E6 [1]; 10000 nM): 29.5% | relative viability EC50 (Vero E6 [2]): 605 nM
